## Drug screen on melanoma cell lines: cell count

Source: doi:10.1371/journal.pone.0140310, primary screening data, rounded.

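Human melanoma cell lines in 1,536-well plates were treated with two drugs together for 72 h, then fixed, stained and imaged. The read-out is cell count (nuclei) in % of the DMSO control; lower values mean stronger growth inhibition or killing. Concentrations were fixed for each drug; these are the higher of two levels. No replicate spread is given; individual values may be noisy.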 An unselected part of the screen is shown.

All values are for the listed drug together with ABT-263 (2 µM): CC1(C)CCC(c2ccc(Cl)cc2)=C(CN2CCN(c3ccc(C(=O)NS(=O)(=O)c4ccc(N[C@H](CCN5CCOCC5)CSc5ccccc5)c(S(=O)(=O)C(F)(F)F)c4)cc3)CC2)C1

Compounds and concentrations:
lapatinib, 4 µM: CS(=O)(=O)CCNCc1ccc(-c2ccc3ncnc(Nc4ccc(OCc5cccc(F)c5)c(Cl)c4)c3c2)o1
KU-0063794, 0.1 µM: COc1ccc(-c2ccc3c(N4CCOCC4)nc(N4C[C@@H](C)O[C@@H](C)C4)nc3n2)cc1CO
PD173074, 0.5 µM: CCN(CC)CCCCNc1ncc2cc(-c3cc(OC)cc(OC)c3)c(NC(=O)NC(C)(C)C)nc2n1
stibogluconate, 10 µM: O=C(O)[C@@H]1[O][Sb](=[O])([O][Sb]2(=[O])[O][C@H]([C@H](O)CO)[C@H](O)[C@H](C(=O)O)[O]2)[O][C@H]([C@H](O)CO)[C@@H]1O (some centres unmarked)
vatalanib, 10 µM: Clc1ccc(Nc2nnc(Cc3ccncc3)c3ccccc23)cc1
XAV939, 10 µM: Oc1nc(-c2ccc(C(F)(F)F)cc2)nc2c1CSCC2
nilutamide, 5 µM: CC1(C)NC(=O)N(c2ccc([N+](=O)[O-])c(C(F)(F)F)c2)C1=O
dorsomorphin, 2 µM: c1cc(-c2cnn3cc(-c4ccc(OCCN5CCCCC5)cc4)cnc23)ccn1
cediranib, 2 µM: COc1cc2c(Oc3ccc4[nH]c(C)cc4c3F)ncnc2cc1OCCCN1CCCC1
SNS-314, 0.004 µM: O=C(Nc1cccc(Cl)c1)Nc1ncc(CCNc2ncnc3ccsc23)s1
RKI-983, 2 µM: C[C@@H](N)c1ccc(C(=O)Nc2ccnc3[nH]ccc23)cc1
temozolomide, 10 µM: Cn1nnc2c(C(N)=O)ncn2c1=O
AS-252424, 5 µM: O=C1NC(=O)/C(=C/c2ccc(-c3ccc(F)cc3O)o2)S1
selumetinib, 0.075 µM: Cn1cnc2c(F)c(Nc3ccc(Br)cc3Cl)c(C(=O)NOCCO)cc21
sunitinib, 2 µM: CCN(CC)CCNC(=O)c1c(C)[nH]c(/C=C2\C(=O)Nc3ccc(F)cc32)c1C
ENMD-2076, 0.2 µM: Cc1cc(Nc2cc(N3CCN(C)CC3)nc(/C=C/c3ccccc3)n2)n[nH]1
MK-2206, 2 µM: NC1(c2ccc(-c3nc4ccn5c(=O)[nH]nc5c4cc3-c3ccccc3)cc2)CCC1

| Second drug | C32 | WM3619 | WM451Lu | COLO 800 | COLO 829 | COLO 792 |
|---|---|---|---|---|---|---|
| cediranib | 63.0 | 92.9 | 95.4 | 20.3 | 117 | 7.6 |
| XAV939 | 113 | 45.3 | 90.2 | 40.2 | 92.4 | 16.1 |
| dorsomorphin | 36.6 | 74.6 | 87.1 | 19.0 | 83.7 | 13.3 |
| SNS-314 | 51.3 | 50.8 | 33.0 | 15.3 | 65.2 | 7.7 |
| lapatinib | 105 | 45.1 | 68.3 | 10.6 | 72.9 | 3.5 |
| selumetinib | 84.8 | 32.1 | 76.4 | 34.4 | 84.3 | 12.2 |
| KU-0063794 | 74.6 | 54.8 | 78.9 | 36.3 | 55.4 | 24.4 |
| stibogluconate | 70.7 | 71.3 | 72.1 | 37.6 | 67.4 | 12.5 |
| sunitinib | 60.7 | 52.2 | 39.7 | 3.9 | 126 | 1.4 |
| MK-2206 | 76.2 | 81.3 | 84.5 | 24.7 | 104 | 9.6 |
| PD173074 | 88.6 | 57.2 | 71.6 | 27.8 | 99.2 | 16.0 |
| ENMD-2076 | 68.6 | 52.7 | 73.2 | 14.3 | 79.9 | 5.6 |
| AS-252424 | 69.0 | 67.9 | 51.6 | 44.7 | 75.4 | 13.2 |
| RKI-983 | 48.5 | 69.2 | 59.5 | 55.9 | 85.0 | 3.3 |
| temozolomide | 52.3 | 75.4 | 88.3 | 31.9 | 67.5 | 21.5 |
| nilutamide | 82.6 | 104 | 80.1 | 39.2 | 90.5 | 24.1 |
| vatalanib | 84.1 | 50.8 | 68.8 | 23.8 | 49.5 | 2.3 |

2 of the entries, repeated:

Second drug	C32	WM3619	WM451Lu	COLO 800	COLO 829	COLO 792
ENMD-2076	68.6	52.7	73.2	14.3	79.9	5.6
dorsomorphin	36.6	74.6	87.1	19.0	83.7	13.3